This passage reports binding results from PMC7567072.

Protein sequences, listed by entry. Tags and fused reporters are not part of them.
UniProt P06430: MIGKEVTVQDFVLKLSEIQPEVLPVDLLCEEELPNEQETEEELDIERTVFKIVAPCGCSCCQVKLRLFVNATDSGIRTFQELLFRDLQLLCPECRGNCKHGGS
UniProt P03129: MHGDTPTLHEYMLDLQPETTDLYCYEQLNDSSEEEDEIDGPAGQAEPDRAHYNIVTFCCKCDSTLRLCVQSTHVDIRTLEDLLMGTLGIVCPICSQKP

No constants are given. Whether binding was seen depends on the method and setting. Binding seen in cells or lysates may run through a third protein. Some results given as binding are weak or reduced against the parent protein; the word gives no strength. For some of these results: Tags and fused reporters may be left off the sequences shown.

For assay [1], the target named is FLAG-tagged HPV8-E7 (pCMV2-HPV8-E7-FLAG), in C33a cells (human papillomavirus type 8 (HPV8)) (UniProt P06430). The experiment in a line: co-IP; whole protein lysates of transiently transfected C33a cells on M2-FLAG agarose beads, 0.1 M LSDB buffer, 3 h at 4 °C, five washes; blot for ATP5B.
The target in assay [2] is FLAG-HA-HPV16-E7 (Flag-HA-tagged pCMV HPV-16 E7), in HEK293 cells (human papillomavirus type 16 (HPV16)) (UniProt P03129). The experiment in a line: co-IP; extracts of HEK293 cells 24 h after transfection, anti-FLAG antibody conjugated beads; blot for endogenous ATP5B.
Assay [3] deals with T1, FLAG-HPV11-E7 (FLAG-tagged pCMV HPV-11 E7), in HEK293 cells (human papillomavirus type 11 (HPV11)) (UniProt P04020).
T1 sequence: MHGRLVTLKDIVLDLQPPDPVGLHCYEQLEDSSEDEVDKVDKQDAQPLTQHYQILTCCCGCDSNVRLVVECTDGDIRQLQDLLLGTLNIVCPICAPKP
Described as above.

Assay [4] concerns the target FLAG-HPV8-E7 (pCMV2-HPV8-E7-FLAG), in HEK293 cells (human papillomavirus type 8 (HPV8)) (UniProt P06430). The assay is described as above.

As for “ATP5B, beta subunit of the mitochondrial ATP synthase, in C33a cells (from UniProt P06576 48-529)”, in assay [1], the binding entry is reported as “binds”.
“endogenous ATP5B, in HEK293 cells (from UniProt P06576 48-529)”: the binding entry in assay [2], in assay [3] and in assay [4] was “binds” in each case.
